# Results published in the supplement of paper PMC10849652.
# Protein sequences, listed by entry. Tags and fused reporters are not part of them. Lines headed by an entry give the natural chain unless they say otherwise; changes in a name come on top.
# UniProt Q9NWT6: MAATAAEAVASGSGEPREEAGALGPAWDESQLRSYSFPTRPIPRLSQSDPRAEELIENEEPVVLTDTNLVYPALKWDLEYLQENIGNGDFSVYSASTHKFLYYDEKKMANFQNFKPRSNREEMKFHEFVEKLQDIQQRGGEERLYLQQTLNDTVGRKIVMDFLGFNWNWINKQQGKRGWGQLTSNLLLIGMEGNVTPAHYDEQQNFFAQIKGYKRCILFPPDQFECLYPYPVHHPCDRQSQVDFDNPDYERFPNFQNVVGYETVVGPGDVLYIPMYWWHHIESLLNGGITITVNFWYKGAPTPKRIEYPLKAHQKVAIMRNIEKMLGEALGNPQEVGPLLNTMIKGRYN
# UniProt Q00613: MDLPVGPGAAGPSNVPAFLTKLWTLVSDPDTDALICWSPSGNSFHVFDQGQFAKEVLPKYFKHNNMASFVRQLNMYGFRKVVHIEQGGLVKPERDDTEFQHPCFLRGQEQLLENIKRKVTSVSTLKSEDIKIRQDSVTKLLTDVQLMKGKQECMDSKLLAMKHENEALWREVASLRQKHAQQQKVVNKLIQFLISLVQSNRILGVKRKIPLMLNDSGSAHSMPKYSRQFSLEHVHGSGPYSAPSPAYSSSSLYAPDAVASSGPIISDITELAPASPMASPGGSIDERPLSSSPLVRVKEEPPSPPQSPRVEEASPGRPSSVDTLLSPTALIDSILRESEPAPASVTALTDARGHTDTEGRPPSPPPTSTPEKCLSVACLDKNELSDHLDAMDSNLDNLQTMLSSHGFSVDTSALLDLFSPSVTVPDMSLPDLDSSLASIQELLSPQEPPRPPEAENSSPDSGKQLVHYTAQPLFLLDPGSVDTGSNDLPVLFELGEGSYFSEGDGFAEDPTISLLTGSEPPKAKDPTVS
# UniProt Q00839, whole entry, looked up: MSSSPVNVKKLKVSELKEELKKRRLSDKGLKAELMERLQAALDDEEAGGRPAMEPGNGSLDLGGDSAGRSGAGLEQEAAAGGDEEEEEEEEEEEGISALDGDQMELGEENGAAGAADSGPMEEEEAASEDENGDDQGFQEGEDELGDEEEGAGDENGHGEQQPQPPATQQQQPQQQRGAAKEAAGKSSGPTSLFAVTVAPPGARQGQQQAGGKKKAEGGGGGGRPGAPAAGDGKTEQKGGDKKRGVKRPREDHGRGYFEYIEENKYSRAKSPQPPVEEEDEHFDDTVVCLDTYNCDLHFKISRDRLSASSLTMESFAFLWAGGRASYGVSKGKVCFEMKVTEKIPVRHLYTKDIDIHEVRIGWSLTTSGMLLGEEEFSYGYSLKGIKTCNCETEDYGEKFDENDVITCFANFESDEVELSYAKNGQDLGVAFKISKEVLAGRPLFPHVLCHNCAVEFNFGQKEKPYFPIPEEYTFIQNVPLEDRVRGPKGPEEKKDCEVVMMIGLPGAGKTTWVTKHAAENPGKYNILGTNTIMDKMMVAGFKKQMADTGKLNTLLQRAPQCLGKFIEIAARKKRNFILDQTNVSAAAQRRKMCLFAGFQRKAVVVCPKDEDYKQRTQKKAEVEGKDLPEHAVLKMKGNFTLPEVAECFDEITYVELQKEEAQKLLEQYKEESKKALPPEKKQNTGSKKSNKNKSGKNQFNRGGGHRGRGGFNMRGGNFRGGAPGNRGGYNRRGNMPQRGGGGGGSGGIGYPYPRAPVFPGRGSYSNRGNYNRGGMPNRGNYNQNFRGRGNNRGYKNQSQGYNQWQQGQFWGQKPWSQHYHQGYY
# UniProt Q96ED9: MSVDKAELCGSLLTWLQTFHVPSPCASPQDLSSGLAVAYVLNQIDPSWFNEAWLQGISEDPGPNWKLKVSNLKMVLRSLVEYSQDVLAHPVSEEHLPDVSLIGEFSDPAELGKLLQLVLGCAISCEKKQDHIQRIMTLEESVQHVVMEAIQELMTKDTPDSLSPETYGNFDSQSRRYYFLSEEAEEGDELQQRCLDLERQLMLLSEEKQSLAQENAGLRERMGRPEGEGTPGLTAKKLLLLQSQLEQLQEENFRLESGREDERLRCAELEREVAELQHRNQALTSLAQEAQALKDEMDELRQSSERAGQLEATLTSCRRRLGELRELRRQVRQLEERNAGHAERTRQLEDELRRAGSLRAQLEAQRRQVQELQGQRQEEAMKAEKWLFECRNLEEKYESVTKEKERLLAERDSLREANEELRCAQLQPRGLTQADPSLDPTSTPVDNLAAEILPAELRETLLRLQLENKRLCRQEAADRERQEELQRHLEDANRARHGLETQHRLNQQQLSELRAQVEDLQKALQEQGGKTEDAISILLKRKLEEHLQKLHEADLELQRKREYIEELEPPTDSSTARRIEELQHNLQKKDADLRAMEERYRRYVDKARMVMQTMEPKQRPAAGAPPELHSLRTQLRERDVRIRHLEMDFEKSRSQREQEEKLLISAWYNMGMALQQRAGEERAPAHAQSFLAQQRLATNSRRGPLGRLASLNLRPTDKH
# UniProt Q8TB92: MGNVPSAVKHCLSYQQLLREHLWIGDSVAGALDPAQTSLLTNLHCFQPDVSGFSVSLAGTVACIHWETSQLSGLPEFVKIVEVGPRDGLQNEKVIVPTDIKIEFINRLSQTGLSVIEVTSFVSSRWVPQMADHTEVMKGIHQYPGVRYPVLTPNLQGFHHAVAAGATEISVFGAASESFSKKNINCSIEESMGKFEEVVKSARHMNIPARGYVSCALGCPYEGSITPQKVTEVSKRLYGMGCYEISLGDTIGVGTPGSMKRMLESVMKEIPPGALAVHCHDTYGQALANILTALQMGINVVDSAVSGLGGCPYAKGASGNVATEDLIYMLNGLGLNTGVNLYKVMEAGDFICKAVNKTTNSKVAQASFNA
# UniProt Q05084: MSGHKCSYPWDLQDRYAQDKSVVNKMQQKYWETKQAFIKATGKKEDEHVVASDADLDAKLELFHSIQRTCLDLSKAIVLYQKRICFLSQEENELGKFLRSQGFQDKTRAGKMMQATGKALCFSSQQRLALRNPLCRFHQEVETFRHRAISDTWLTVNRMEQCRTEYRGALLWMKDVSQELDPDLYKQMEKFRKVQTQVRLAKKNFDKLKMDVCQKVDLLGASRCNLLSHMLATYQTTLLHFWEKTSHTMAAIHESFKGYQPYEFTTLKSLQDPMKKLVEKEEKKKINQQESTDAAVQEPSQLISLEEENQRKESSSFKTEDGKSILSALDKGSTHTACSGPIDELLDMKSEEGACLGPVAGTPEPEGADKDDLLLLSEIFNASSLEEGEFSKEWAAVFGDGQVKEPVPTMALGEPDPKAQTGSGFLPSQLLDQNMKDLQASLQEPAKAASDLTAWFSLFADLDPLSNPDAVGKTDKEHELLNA
# UniProt Q9BW72: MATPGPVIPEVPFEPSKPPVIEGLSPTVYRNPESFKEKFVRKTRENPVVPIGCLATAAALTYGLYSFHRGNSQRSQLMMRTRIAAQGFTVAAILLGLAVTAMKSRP
# UniProt Q9NQG7: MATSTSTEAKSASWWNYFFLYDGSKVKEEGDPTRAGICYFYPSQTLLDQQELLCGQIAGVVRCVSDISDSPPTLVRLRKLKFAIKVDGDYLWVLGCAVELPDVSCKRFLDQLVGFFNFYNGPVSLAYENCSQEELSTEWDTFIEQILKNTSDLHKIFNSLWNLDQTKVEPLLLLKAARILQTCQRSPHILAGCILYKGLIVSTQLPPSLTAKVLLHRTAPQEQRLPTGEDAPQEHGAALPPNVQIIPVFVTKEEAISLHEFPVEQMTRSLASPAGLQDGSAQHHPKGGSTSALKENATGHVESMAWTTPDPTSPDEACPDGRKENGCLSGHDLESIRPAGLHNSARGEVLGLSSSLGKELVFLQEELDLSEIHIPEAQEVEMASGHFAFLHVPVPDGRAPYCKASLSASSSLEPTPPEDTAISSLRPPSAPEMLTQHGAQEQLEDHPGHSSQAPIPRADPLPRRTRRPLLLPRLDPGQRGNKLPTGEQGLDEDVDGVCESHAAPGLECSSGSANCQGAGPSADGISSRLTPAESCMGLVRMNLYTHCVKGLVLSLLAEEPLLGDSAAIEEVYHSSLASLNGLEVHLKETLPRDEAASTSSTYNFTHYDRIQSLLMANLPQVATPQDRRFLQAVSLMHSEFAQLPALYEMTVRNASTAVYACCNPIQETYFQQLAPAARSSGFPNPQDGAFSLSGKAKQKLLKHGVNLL
# UniProt Q659A1: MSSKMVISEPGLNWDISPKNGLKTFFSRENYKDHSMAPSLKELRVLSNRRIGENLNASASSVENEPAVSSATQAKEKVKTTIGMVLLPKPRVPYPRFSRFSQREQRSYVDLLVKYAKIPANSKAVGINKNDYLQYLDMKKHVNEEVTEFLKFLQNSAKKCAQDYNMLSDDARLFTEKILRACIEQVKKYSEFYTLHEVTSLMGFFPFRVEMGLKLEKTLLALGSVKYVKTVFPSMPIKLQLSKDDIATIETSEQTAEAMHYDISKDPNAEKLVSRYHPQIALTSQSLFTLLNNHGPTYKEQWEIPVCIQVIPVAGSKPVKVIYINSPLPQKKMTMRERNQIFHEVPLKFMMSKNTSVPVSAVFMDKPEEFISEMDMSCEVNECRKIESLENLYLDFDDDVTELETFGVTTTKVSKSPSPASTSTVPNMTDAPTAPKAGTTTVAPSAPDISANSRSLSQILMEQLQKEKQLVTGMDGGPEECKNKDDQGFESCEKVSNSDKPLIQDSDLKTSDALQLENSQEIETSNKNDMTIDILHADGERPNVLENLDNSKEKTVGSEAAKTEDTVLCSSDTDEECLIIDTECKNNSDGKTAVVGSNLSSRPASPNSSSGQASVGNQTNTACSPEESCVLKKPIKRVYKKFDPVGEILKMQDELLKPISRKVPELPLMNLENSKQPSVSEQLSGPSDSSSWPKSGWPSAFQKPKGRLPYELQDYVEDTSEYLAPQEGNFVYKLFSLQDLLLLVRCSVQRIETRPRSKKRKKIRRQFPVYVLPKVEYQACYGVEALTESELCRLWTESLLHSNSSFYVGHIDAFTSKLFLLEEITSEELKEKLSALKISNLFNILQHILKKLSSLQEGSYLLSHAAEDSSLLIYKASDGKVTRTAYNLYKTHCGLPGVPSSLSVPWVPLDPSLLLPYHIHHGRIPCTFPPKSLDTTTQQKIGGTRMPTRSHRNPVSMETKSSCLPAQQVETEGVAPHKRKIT
# UniProt Q9NWY4: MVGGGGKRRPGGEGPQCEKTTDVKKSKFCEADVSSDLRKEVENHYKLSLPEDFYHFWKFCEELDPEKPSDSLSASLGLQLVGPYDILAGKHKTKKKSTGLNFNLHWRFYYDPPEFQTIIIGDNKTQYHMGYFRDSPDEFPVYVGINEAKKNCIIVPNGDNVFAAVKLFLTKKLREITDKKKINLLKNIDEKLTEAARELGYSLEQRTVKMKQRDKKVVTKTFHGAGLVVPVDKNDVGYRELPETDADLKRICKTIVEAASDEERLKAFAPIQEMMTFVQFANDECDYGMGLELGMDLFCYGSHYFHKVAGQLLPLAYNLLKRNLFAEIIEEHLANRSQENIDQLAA
# UniProt Q9NSB8: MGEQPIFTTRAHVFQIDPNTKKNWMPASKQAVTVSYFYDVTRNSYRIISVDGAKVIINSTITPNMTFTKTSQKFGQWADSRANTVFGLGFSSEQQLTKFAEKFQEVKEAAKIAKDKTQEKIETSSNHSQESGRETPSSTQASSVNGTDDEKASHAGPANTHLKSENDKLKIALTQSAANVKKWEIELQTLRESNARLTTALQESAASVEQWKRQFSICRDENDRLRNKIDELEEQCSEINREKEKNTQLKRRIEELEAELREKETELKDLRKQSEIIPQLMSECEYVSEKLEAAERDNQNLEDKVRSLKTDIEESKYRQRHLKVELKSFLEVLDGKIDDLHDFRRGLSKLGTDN
# UniProt P17483: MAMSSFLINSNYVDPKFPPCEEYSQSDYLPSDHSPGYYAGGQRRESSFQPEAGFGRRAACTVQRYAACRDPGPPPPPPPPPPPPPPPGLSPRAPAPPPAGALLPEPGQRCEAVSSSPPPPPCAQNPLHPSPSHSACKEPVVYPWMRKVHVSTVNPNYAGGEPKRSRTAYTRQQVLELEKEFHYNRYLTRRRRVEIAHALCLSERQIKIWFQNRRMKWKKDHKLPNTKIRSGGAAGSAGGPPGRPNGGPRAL
# UniProt Q9NZL4: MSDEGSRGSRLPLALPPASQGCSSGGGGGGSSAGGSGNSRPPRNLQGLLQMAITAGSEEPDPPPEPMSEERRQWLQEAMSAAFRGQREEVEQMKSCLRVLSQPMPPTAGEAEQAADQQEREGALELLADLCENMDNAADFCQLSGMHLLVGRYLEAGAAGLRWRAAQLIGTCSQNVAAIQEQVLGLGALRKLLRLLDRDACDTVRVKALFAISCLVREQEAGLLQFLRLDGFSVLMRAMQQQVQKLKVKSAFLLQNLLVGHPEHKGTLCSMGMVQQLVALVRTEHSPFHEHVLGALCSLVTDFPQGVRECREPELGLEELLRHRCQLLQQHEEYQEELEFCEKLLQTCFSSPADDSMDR
# UniProt P41134: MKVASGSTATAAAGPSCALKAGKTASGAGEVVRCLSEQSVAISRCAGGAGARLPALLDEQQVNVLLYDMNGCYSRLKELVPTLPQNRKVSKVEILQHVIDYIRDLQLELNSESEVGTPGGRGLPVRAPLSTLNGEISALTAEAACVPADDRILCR
# The other results are listed elsewhere or left out.
# Compound: CC1=CC=C(C=C1)SC2=C3C=C(SC3=CN=C2)C(=O)N
# Test: log2 fold change, soluble protein after heating vs DMSO (PISA); higher = thermal stabilisation; K562 cells, 10 uM, 30 min; active = over 0.2 and 3.5 SD of the protein, either way, in both replicates (recomputed)
# Procedure, shortened: (§1)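 Quantification of soluble protein used TMTpro 16plex LC-MS/MS, with channel sums equalised. Samples were the supernatant after 21,000xg for 90 min of pooled aliquots from K562 cells (2×10^6 cells/mL) treated with 10 μM compound for 30 min, heated for 3 min over 48°C-58°C, and extracted in PBS with 0.5% NP-40 at 4°C. Values, from duplicates, describe thermal stability against control samples on a log2 fold-change scale.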
row,Target,log2 fold change
1,HOOK1 (UniProt Q9UJC3),inactive: 0
2,HMGXB4 (UniProt Q9UGU5),inactive: 0.008
3,ICOSLG isoform 2 (UniProt O75144),inactive: 0.192
4,HIF1AN (UniProt Q9NWT6),inactive: -0.026
5,HSF1 (UniProt Q00613),inactive: -0.002
6,HNRNPU isoform 2 (UniProt Q00839),inactive: -0.002
7,HTD2 (UniProt P86397),inactive: 0.006
8,HOOK2 (UniProt Q96ED9),inactive: 0.022

# Compound: CC1=NC(=CC=C1)C2=C(N=C(N2)C(C)(C)C)C3=CC4=NC=CN=C4C=C3
# Test: as above
# Procedure, shortened: as §1
row,Target,log2 fold change
1,HMGCLL1 (UniProt Q8TB92),inactive: -0.02
2,HIST2H2AA3 (UniProt Q6FI13),inactive: -0.065
3,HMG20B (UniProt Q9P0W2),inactive: -0.192
4,ICA1 isoform 2 (UniProt Q05084),inactive: 0.012
5,HIGD2A (UniProt Q9BW72),inactive: 0.044
6,"HUWE1, A0A087X1S3",inactive: -0.086
7,HPS4 isoform 4 (UniProt Q9NQG7),inactive: 0.047
8,ICE1 (UniProt Q9Y2F5),inactive: -0.112
9,HMBS (UniProt F5H226),inactive: -0.165
10,HSP90AB4P (UniProt Q58FF6),inactive: 0.054
11,HIF1AN (UniProt Q9NWT6),inactive: 0.032
12,HSPBAP1 (UniProt Q96EW2),inactive: 0.03
13,HTR1F (UniProt P30939),inactive: 0.069
14,HOOK2 (UniProt Q96ED9),inactive: 0.018

# Compound: CCCCN(Cc1ccc(C(=O)NO)cc1)C(=O)Nc1ccccc1 [Nexturastat A]
# Test: as above
# Procedure, shortened: as §1
row,Target,log2 fold change
1,ICE2 (UniProt Q659A1),inactive: 0.134
2,HMGCLL1 (UniProt Q8TB92),inactive: -0.101
3,HPF1 (UniProt Q9NWY4),inactive: 0.052
4,HIST2H2AA3 (UniProt Q6FI13),inactive: 0.989
5,HOMER2 (UniProt Q9NSB8),inactive: 0.107
6,ICA1 isoform 2 (UniProt Q05084),inactive: 0.024
7,HIGD2A (UniProt Q9BW72),inactive: 0.181
8,"HUWE1, A0A087X1S3",inactive: 0.04
9,ICE1 (UniProt Q9Y2F5),inactive: -0.029
10,HOXB4 (UniProt P17483),inactive: 0.063
11,HOOK1 (UniProt Q9UJC3),inactive: -0.011
12,HMGXB4 (UniProt Q9UGU5),inactive: 0.192
13,HSP90AB4P (UniProt Q58FF6),inactive: -0.014
14,"HYOU1, A0A494C039",inactive: 0.262
15,HSPBP1 (UniProt Q9NZL4),inactive: -0.021
16,HIF1AN (UniProt Q9NWT6),inactive: 0.181
17,HSF1 (UniProt Q00613),inactive: 0.003
18,HTD2 (UniProt P86397),inactive: -0.253
19,ID1 (UniProt P41134),inactive: 0.351
20,HOOK2 (UniProt Q96ED9),inactive: -0.147
